Results on 1 compound are retold here after patent US20240239840A1, “method for the treatment of pain and a medicinal product for administration during pain” (PVP LABS PTE.LTD., priority 2023, published 2024).

A short description of the data set: phase II clinical trial, safety in cancer patients experiencing pain. Particulars: stage 2. As to the method:
Pain intensity was evaluated on a numeric rating scale (NRS) from 0 to 10. […] The patients' physical activity score on the Eastern Cooperative Oncology Group (ECOG) performance status scale was 0 to 3, i.e. they were active and were up and about for over 50% of waking hours (grade 2 on the ECOG scale) or were capable of only limited self-care and confined to bed or chair more than 50% of waking hours (grade 3 on the ECOG scale).
The study was carried out in two stages. The total duration of the trial for each patient was 20 days or less. […] The number of doses depended on pain intensity as evaluated on the NRS scale for each individual patient.
Comments: 1. […] 2. SAE=serious adverse event.

Turning to `CN1CC[C@]23c4c5ccc(O)c4O[C@H]2[C@@H](O)C=C[C@H]3[C@H]1C5` [morphine], the “Retention of urine, % of the total number of AEs for the group” value is “(3.7) %”.
